Results taken from the supplement of paper PMC10849652.
The other results are listed elsewhere or left out.

By UniProt entry, the sequences of proteins in these tests, tags left out. Where a name states a change or a piece, a line headed by the entry shows the natural chain unless it says otherwise.
UniProt Q96AQ8: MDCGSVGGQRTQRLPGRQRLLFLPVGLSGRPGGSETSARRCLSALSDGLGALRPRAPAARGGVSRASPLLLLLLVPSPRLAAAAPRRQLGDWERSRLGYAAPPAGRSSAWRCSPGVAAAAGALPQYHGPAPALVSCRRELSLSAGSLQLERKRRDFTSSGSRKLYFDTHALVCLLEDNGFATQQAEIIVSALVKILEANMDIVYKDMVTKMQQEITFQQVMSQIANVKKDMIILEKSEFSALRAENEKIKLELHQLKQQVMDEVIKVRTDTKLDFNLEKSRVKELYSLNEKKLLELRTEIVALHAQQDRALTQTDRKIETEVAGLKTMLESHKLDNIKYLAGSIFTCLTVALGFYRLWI
UniProt Q13503: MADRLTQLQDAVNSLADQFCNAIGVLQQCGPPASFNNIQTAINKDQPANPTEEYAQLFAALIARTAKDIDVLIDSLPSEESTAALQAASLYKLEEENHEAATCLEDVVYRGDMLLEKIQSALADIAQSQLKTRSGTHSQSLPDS
UniProt Q68D91: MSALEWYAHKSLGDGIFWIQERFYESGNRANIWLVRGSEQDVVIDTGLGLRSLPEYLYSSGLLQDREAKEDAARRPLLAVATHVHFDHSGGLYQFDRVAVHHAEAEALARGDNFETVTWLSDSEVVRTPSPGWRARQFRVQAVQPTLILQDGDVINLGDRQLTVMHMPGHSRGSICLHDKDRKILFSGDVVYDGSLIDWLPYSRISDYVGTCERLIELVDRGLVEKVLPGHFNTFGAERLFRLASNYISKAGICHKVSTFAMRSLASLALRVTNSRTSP
UniProt Q9NU22: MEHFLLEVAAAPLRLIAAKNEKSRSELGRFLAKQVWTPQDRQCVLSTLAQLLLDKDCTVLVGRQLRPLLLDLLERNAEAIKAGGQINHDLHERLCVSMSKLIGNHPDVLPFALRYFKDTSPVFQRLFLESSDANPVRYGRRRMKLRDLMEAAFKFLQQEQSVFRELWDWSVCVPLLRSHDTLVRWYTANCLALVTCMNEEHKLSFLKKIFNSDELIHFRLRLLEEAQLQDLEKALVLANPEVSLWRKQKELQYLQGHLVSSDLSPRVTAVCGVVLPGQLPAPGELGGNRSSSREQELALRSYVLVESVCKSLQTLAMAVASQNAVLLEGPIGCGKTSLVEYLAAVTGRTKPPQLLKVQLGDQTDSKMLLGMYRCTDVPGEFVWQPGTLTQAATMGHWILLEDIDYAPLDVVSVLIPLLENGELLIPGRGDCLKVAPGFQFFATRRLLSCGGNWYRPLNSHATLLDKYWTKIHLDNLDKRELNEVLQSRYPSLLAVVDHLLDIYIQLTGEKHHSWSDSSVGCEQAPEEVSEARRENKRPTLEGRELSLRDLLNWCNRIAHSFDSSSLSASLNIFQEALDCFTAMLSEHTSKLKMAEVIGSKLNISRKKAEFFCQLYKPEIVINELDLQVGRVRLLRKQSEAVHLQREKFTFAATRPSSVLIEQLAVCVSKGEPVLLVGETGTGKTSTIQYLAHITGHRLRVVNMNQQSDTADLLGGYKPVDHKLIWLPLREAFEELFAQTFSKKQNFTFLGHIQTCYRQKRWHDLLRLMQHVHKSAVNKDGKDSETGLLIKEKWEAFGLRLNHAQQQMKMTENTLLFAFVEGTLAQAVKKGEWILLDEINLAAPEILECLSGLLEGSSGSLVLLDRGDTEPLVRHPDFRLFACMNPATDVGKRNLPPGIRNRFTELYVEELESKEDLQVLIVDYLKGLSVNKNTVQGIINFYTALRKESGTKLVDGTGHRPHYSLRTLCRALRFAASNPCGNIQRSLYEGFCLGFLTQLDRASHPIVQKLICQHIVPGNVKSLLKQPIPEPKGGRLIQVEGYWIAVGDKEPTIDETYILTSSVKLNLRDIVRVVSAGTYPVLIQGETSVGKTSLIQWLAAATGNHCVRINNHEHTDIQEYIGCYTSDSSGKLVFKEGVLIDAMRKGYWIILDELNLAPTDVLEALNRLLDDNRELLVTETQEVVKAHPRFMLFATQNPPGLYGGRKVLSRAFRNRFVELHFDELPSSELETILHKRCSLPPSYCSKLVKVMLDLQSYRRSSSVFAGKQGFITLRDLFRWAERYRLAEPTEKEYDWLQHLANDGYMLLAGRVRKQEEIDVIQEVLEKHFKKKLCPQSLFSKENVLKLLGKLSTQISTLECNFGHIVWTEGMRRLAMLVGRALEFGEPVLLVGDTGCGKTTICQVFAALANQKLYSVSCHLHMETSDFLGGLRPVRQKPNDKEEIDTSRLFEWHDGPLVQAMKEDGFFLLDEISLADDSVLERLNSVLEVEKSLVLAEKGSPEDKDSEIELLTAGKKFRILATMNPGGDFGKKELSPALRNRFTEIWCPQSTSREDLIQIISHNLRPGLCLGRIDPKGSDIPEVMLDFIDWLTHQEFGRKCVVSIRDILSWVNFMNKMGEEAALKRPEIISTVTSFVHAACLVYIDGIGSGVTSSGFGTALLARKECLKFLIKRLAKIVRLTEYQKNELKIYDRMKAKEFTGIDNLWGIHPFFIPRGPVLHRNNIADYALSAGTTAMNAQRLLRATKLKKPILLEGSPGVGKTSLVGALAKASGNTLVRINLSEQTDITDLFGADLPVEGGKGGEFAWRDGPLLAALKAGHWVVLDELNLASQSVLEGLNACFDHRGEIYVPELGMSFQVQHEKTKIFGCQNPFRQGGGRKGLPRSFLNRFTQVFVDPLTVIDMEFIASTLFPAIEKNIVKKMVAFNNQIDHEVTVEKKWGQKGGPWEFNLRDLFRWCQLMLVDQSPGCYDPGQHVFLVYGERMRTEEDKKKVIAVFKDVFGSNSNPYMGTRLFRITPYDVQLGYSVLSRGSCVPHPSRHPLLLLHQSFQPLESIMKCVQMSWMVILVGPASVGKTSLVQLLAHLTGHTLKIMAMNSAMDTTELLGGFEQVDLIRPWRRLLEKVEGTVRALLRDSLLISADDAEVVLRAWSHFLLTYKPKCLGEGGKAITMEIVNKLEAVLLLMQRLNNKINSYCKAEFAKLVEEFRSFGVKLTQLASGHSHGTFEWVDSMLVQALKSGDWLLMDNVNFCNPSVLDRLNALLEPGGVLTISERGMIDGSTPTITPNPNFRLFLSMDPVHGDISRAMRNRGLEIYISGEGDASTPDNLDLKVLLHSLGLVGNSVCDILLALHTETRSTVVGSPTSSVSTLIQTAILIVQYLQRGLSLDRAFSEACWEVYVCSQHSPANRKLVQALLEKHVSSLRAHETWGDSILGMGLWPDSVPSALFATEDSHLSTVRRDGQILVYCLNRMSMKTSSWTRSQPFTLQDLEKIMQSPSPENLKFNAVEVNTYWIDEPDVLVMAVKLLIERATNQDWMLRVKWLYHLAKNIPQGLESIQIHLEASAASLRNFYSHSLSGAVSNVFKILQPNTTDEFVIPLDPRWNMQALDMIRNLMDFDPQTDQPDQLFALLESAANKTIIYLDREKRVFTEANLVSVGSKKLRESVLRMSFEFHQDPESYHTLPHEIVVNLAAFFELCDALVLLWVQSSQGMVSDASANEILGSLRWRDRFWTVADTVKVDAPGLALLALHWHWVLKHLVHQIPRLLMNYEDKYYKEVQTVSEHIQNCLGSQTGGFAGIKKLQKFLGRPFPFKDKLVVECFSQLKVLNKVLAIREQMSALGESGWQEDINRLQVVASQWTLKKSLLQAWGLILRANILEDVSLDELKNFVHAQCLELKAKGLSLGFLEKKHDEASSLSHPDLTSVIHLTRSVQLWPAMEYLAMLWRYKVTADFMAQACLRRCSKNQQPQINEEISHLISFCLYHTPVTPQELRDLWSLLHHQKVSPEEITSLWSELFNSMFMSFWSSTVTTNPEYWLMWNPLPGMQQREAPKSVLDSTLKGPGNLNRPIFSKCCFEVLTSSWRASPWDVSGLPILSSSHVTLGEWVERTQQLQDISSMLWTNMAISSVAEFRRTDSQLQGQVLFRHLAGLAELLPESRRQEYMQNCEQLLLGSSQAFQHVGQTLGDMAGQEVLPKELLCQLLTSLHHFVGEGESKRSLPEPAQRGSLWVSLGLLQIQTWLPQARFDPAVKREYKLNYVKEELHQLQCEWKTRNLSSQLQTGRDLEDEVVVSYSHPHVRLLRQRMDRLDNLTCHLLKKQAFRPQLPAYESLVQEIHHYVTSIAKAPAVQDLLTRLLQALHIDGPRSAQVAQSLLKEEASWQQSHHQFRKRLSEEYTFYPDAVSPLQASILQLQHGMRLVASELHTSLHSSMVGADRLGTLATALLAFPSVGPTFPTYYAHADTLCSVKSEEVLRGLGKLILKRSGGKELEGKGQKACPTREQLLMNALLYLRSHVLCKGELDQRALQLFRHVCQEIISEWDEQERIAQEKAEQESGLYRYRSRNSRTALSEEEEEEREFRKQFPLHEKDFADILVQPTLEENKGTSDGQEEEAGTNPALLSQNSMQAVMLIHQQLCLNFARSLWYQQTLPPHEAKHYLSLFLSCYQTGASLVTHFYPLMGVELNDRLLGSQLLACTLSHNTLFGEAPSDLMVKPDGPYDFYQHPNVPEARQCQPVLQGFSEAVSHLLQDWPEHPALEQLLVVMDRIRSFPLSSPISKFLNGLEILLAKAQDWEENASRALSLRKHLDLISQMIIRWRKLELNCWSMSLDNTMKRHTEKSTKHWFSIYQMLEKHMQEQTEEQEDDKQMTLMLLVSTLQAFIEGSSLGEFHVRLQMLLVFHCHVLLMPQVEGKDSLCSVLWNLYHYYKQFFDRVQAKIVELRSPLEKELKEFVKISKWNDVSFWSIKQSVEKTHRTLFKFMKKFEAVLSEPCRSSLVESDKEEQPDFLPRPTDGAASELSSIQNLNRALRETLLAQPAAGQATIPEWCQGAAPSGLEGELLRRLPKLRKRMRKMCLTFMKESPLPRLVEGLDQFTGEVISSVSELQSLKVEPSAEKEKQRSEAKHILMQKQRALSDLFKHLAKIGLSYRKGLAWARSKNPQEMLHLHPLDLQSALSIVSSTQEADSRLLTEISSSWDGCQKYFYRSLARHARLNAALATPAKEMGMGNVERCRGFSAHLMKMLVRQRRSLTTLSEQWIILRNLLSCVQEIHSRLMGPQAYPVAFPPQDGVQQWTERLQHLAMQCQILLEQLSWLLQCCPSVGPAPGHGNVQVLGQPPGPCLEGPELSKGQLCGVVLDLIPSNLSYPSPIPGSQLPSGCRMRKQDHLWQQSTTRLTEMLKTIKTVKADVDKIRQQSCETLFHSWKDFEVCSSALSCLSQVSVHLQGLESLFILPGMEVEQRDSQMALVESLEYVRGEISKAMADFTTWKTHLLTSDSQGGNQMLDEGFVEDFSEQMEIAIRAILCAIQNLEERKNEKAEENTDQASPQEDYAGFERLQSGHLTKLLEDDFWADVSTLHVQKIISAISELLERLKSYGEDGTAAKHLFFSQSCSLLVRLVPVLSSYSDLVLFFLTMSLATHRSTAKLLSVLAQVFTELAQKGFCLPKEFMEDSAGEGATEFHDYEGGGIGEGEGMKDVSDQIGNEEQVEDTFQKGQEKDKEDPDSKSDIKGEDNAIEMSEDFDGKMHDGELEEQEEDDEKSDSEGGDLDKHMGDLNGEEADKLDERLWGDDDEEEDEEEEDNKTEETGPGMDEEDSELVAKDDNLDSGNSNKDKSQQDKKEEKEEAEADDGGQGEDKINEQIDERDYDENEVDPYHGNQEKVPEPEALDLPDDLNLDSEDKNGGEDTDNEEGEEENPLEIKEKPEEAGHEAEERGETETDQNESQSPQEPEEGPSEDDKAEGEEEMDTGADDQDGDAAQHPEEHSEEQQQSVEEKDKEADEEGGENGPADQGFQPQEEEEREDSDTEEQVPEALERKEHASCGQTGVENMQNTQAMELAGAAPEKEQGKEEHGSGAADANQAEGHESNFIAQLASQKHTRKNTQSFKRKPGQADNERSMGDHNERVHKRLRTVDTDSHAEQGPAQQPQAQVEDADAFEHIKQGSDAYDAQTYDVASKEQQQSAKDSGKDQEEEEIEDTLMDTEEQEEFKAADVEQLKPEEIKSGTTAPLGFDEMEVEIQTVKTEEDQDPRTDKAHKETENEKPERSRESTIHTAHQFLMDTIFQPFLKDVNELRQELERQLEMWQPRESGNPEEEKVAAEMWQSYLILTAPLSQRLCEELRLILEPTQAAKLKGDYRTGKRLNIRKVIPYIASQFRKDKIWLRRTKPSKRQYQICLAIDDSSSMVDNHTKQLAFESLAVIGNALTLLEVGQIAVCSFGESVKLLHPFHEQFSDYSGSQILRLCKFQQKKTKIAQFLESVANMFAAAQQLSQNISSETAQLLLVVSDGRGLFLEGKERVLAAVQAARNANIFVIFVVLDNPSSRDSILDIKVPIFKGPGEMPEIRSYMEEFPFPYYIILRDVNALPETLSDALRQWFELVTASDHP
UniProt Q9BUE0: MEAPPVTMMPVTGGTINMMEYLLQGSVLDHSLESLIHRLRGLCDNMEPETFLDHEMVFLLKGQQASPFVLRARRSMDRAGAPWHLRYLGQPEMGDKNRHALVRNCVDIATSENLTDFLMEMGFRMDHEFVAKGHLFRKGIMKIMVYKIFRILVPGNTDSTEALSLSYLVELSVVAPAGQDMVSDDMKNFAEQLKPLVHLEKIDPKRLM

Legend:
Test in all cases: log2 fold change, soluble protein after heating vs DMSO (PISA); higher = thermal stabilisation; K562 lysate, 10 uM; active = over 0.2 and 3.5 SD of the protein, either way, in both replicates (recomputed)
[1] = compound: C=CC(=O)N1CCC[C@@H](n2nc(-c3ccc(Oc4ccccc4)cc3)c3c(N)ncnc32)C1 [ibrutinib]
In short: (§1)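 Pellets of K562 cells were dounce-homogenised in PBS pH 7.4 with 1 mM MgCl2, and the crude extract was held at 1 mg/mL protein for a 30 min treatment with 10 μM compound. Aliquots were heated for 3 min over 48°C-58°C and pooled before NP-40 was added to 0.5% at 4°C. The supernatant from 21,000xg for 90 min was quantified by TMTpro 16plex LC-MS/MS with channel sums equalised. Values are reported from duplicates as log-two fold change in thermal stability relative to solvent controls.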

[2] = compound: CC(=O)c1cnc2ccc(-c3cc(Cl)c(O)c(Cl)c3)nc2c1N[C@H]1CC[C@H](CN(C)C)CC1
In short: as §1

[3] = compound: CC(C)(C)Cn1c(N)nc2ccc(-c3[nH]c(C(C)(C)C)nc3-c3ccc(F)cc3)nc21 [ralimetinib]
In short: as §1

[4] = compound: CC(C)(O)CC(=O)NCCn1ccc2ncnc(Nc3ccc(Oc4cccc(C(F)(F)F)c4)c(Cl)c3)c21
In short: as §1

[5] = compound: CC(C)C1=C2N=C(C=C(N2N=C1)NCC3=CC=CC=C3)NCCCCCCN
In short: as §1

[6] = compound: CC1=C(C(CC(=O)N1)C2=CC=C(C=C2)C(F)(F)F)C(=O)NC3=C(C=C4C(=C3)C=NN4)F
In short: as §1

[7] = compound: CC1=C(C2=C(C=C1)C(=O)C3=CC=CC=C3N2CCCN)C
In short: as §1

[8] = compound: CC1=C(C=C(C=C1)NC(=O)C2=CC(=CC=C2)C(C)(C)C#N)NC3=CC4=C(C=C3)N=CN(C4=O)C
In short: as §1

[9] = compound: CC1=C(C=C(C=C1)NC(=O)C2=CC(=CC=C2)N(C)C)NC(=O)C3=CC=C(C=C3)O
In short: as §1

[10] = compound: CC1=CC=C(C=C1)SC2=C3C=C(SC3=CN=C2)C(=O)N
In short: as §1

Measured: log2 fold change

MCUR1 (UniProt Q96AQ8)
inactive: [1] 0.005 | [2] -0.025 | [3] 0.041 | [4] -0.027 | [5] -0.047 | [6] 0.003 | [7] -0.021 | [8] 0.005 | [9] -0.023 | [10] -0.035

ME3 (UniProt Q16798)
inactive: [1] -0.027 | [2] 0.012 | [3] 0.087 | [4] -0.06 | [5] -0.058 | [6] 0.065 | [7] 0 | [8] 0.058 | [9] 0.052 | [10] -0.114

MED27 (UniProt Q6P2C8)
inactive: [1] 0.025 | [2] -0.008 | [3] 0.005 | [4] -0.039 | [5] 0.004 | [6] -0.14 | [7] 0.025 | [8] 0.017 | [9] 0.011 | [10] 0.003

METTL16 (UniProt Q86W50)
inactive: [1] 0.009 | [2] -0.02 | [3] -0.023 | [4] -0.008 | [5] -0.007 | [6] 0.033 | [7] -0.019 | [8] -0.035 | [9] 0.024 | [10] 0.012

Fetched one by one from the entries so far (two):
MED27 (UniProt Q6P2C8)
inactive: [1] 0.025 | [2] -0.008 | [3] 0.005 | [4] -0.039 | [5] 0.004 | [6] -0.14 | [7] 0.025 | [8] 0.017 | [9] 0.011 | [10] 0.003

ME3 (UniProt Q16798)
inactive: [1] -0.027 | [2] 0.012 | [3] 0.087 | [4] -0.06 | [5] -0.058 | [6] 0.065 | [7] 0 | [8] 0.058 | [9] 0.052 | [10] -0.114

Additional records follow.

MBIP (UniProt Q9NS73)
inactive: [1] -0.121 | [2] 0.149 | [3] 0.042 | [4] -0.07 | [5] -0.057 | [6] 0.076 | [7] -0.039 | [8] -0.131 | [9] 0.039 | [10] -0.01

MED21 (UniProt Q13503)
inactive: [1] -0.105 | [2] 0.346 | [3] 0.032 | [4] 0.058 | [5] -0.144 | [6] -0.059 | [7] -0.18 | [8] 0.022 | [9] 0 | [10] 0.056

MED17 (UniProt Q9NVC6)
inactive: [1] 0.018 | [2] 0.003 | [3] 0 | [4] -0.003 | [5] -0.017 | [6] 0.04 | [7] 0.019 | [8] 0 | [9] 0.021 | [10] 0.001

MED12 isoform 2 (UniProt Q93074)
inactive: [1] 0.004 | [2] -0.019 | [3] 0.022 | [4] -0.009 | [5] -0.005 | [6] 0.009 | [7] 0.003 | [8] -0.005 | [9] 0.037 | [10] 0.02

MBOAT7 (UniProt Q96N66)
inactive: [1] -0.019 | [2] -0.002 | [3] 0.002 | [4] -0.007 | [5] 0.018 | [6] 0.029 | [7] -0.008 | [8] 0.004 | [9] -0.009 | [10] -0.014

MED16 (UniProt Q9Y2X0)
inactive: [1] -0.113 | [2] -0.012 | [3] 0.057 | [4] 0.046 | [5] -0.014 | [6] 0.021 | [7] -0.01 | [8] -0.038 | [9] -0.018 | [10] 0.005

MCEE (UniProt Q96PE7)
inactive: [1] 0.051 | [2] -0.014 | [3] 0.062 | [4] 0.041 | [5] -0.08 | [6] -0.039 | [7] 0.021 | [8] -0.034 | [9] 0 | [10] -0.051

MFSD1 isoform 6 (UniProt Q9H3U5)
inactive: [1] 0.223 | [2] -0.032 | [3] 0.087 | [4] 0.038 | [5] -0.04 | [6] -0.039 | [7] -0.066 | [8] 0.013 | [9] -0.113 | [10] -0.013

MEIS2 (UniProt O14770)
inactive: [1] -0.024 | [2] 0.011 | [3] 0.012 | [4] 0.01 | [5] 0.04 | [6] 0.025 | [7] 0.019 | [8] 0.039 | [9] 0.033 | [10] -0.036

MECR (UniProt Q9BV79)
inactive: [1] 0.025 | [2] -0.029 | [3] -0.006 | [4] -0.049 | [5] 0.008 | [6] 0.008 | [7] 0.058 | [8] -0.006 | [9] 0.006 | [10] 0.011

MFSD4B (UniProt Q5TF39)
inactive: [1] -0.114 | [2] 0.018 | [3] 0.009 | [4] -0.238 | [5] 0.073 | [6] -0.102 | [7] -0.114 | [8] 0.048 | [9] 0.105 | [10] 0.03

MBLAC2 (UniProt Q68D91)
inactive: [1] 0.05 | [2] -0.005 | [3] 0.069 | [4] 0.003 | [5] 0.035 | [6] 0.04 | [7] 0.037 | [8] -0.013 | [9] -0.044 | [10] -0.019

MED13 (UniProt Q9UHV7)
inactive: [1] -0.033 | [2] -0.021 | [3] 0.036 | [4] -0.045 | [5] -0.003 | [6] 0.049 | [7] 0 | [8] 0.042 | [9] -0.048 | [10] 0.031

MDN1 (UniProt Q9NU22)
inactive: [1] -0.024 | [2] -0.04 | [3] 0.026 | [4] -0.062 | [5] -0.012 | [6] -0.026 | [7] -0.05 | [8] 0.001 | [9] 0.071 | [10] -0.031

MDH1 isoform 3 (UniProt P40925)
inactive: [1] 0.003 | [2] -0.016 | [3] -0.014 | [4] 0.02 | [5] 0.002 | [6] -0.028 | [7] -0.01 | [8] -0.015 | [9] -0.038 | [10] -0.002

ME1 (UniProt P48163)
inactive: [1] 0.01 | [2] -0.013 | [3] 0.025 | [4] 0.007 | [5] -0.017 | [6] -0.009 | [7] 0.009 | [8] -0.039 | [9] -0.014 | [10] -0.001

MDH2 (UniProt P40926)
inactive: [1] -0.004 | [2] -0.022 | [3] -0.002 | [4] 0.036 | [5] -0.01 | [6] -0.007 | [7] 0.002 | [8] -0.007 | [9] -0.022 | [10] -0.028

MAZ isoform 2 (UniProt P56270)
inactive: [1] 0.119 | [2] -0.006 | [3] 0.013 | [4] -0.108 | [5] 0.102 | [6] 0.011 | [7] 0.023 | [8] 0.074 | [9] -0.054 | [10] 0.023

MFN1 (UniProt Q8IWA4)
inactive: [1] 0.128 | [2] -0.062 | [3] -0.003 | [4] -0.144 | [5] 0 | [6] 0.113 | [7] 0.009 | [8] 0.077 | [9] -0.012 | [10] -0.024

METTL7A (UniProt Q9H8H3)
inactive: [1] 0.113 | [2] -0.055 | [3] 0.036 | [4] -0.025 | [5] 0.017 | [6] 0.016 | [7] -0.055 | [8] 0.068 | [9] -0.033 | [10] -0.035

MED4 (UniProt Q9NPJ6)
inactive: [1] 0.049 | [2] -0.023 | [3] 0.025 | [4] -0.008 | [5] -0.023 | [6] 0.009 | [7] -0.07 | [8] 0.054 | [9] -0.017 | [10] 0.013

MED18 (UniProt Q9BUE0)
inactive: [1] -0.004 | [2] 0.006 | [3] 0.037 | [4] -0.024 | [5] -0.022 | [6] 0.048 | [7] -0.008 | [8] -0.023 | [9] 0.012 | [10] -0.014

MED23 (UniProt Q9ULK4)
inactive: [1] -0.002 | [2] -0.027 | [3] 0.042 | [4] -0.033 | [5] 0 | [6] 0.019 | [7] -0.005 | [8] -0.018 | [9] 0.037 | [10] -0.015

MCFD2 (UniProt Q8NI22)
inactive: [1] 0.073 | [2] -0.043 | [3] -0.054 | [4] -0.035 | [5] 0.039 | [6] 0.077 | [7] 0.049 | [8] 0.101 | [9] 0.041 | [10] 0.123

METTL18 (UniProt O95568)
inactive: [1] -0.031 | [2] -0.002 | [3] -0.001 | [4] 0.027 | [5] -0.009 | [6] 0.044 | [7] 0.016 | [8] 0.042 | [9] 0.001 | [10] -0.016

MCL1 (UniProt Q07820)
inactive: [1] 0.042 | [2] 0.052 | [3] 0.051 | [4] -0.006 | [5] -0.083 | [6] -0.05 | [7] 0.039 | [8] 0.029 | [9] 0.015 | [10] -0.032
